These are yes or no findings as the source states them, for the method shown. In cells and extracts the contact can be indirect. Some binding calls cover weakened binding; strength is not graded here.

Chains of the proteins cited; added tags and fusions are not shown.
UniProt Q01196: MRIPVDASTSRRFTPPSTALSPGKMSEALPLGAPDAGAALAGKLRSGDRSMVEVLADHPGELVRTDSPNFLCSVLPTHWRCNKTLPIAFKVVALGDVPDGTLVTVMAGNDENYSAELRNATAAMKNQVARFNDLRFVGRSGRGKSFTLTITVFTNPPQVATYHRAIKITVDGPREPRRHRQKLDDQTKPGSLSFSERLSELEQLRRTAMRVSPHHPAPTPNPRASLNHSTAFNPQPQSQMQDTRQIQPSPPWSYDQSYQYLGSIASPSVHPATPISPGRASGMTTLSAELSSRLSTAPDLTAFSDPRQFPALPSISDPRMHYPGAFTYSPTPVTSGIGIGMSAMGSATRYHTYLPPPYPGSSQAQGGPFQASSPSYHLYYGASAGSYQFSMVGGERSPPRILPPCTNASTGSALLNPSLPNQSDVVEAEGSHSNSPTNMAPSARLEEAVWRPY
UniProt Q96EB6: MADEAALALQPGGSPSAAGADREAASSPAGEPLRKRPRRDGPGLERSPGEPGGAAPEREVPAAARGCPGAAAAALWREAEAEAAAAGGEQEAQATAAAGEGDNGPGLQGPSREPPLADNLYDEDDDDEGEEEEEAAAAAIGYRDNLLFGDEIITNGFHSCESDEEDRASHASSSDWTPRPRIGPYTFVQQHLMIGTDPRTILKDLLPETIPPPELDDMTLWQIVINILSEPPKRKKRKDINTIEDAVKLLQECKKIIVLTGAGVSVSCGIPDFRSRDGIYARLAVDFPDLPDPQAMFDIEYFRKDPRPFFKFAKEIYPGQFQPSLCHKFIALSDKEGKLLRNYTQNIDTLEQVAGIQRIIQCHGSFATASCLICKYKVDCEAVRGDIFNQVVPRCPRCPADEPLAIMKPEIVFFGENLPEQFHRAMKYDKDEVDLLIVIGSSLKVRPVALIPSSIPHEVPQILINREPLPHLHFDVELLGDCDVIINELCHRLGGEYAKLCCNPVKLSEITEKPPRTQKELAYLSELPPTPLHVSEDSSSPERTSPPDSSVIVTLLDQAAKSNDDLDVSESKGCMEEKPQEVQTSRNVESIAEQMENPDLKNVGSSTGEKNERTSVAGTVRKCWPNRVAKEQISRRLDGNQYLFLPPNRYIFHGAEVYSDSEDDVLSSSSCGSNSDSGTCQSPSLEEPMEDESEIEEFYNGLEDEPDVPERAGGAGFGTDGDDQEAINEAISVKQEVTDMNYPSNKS

What all share (assay): co-IP
Assay [1] concerns the target T1, FOSL2 (human (endogenous in Th17 cells)) (UniProt P15408).
T1 sequence: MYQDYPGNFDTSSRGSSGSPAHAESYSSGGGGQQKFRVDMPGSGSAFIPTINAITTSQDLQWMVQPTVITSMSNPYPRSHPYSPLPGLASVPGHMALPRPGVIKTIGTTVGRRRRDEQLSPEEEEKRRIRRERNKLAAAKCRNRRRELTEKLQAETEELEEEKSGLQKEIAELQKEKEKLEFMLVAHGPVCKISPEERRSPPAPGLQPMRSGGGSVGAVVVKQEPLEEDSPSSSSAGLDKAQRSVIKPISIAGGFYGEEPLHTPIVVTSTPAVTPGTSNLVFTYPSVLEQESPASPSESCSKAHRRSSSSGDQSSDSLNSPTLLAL

Assay [2] has as its target T2, FOSL1 (human (endogenous in Th17 cells)) (UniProt P15407).
T2 sequence: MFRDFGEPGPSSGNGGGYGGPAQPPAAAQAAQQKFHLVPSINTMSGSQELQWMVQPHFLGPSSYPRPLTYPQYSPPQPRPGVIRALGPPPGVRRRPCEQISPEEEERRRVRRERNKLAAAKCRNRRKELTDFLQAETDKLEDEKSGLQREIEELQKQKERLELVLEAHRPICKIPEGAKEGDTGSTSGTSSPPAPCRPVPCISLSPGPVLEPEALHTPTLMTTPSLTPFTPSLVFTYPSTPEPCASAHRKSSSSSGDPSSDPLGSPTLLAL

Assay [3] concerns the target T3, FOSL1 (human (endogenous in Th17 cells)), P15407.
T3 chain: T2 sequence
Conditions: remark: other sources report otherwise.

Assay [4] deals with T4, FOSL2 (human (endogenous in Th17 cells)), P15408.
T4 chain: T1 sequence
As to conditions: remark: other sources report otherwise.

Take RUNX1 (from UniProt Q01196 1-453): the binding result in assay [1] and in assay [2] was “binds” each time.

As for SIRT-1 (from UniProt Q96EB6), the binding result in assay [1] and in assay [2] was “binds” in each case.

B1: JUNB, P17275 1-347 (protein)
chain: MCTKMEQPFYHDDSYTATGYGRAPGGLSLHDYKLLKPSLAVNLADPYRSLKAPGARGPGPEGGGGGSYFSGQGSDTGASLKLASSELERLIVPNSNGVITTTPTPPGQYFYPRGGGSGGGAGGAGGGVTEEQEGFADGFVKALDDLHKMNHVTPPNVSLGATGGPPAGPGGVYAGPEPPPVYTNLSSYSPASASSGGAGAAVGTGSSYPTTTISYLPHAPPFAGGHPAQLGLGRGASTFKEEPQTVPEARSRDATPPVSPINMEDQERIKVERKRLRNRLAATKCRKRKLERIARLEDKVKTLKAENAGLSSTAGLLREQVAQLKQKVMTHVSNGCQLLLGVKGHAF
Regarding B1, the binding entry in assay [3] is recorded as “binds”.

B2: JUNB (protein, UniProt P17275 1-347)
chain: B1 chain
As for B2, the binding entry in assay [1] is “binds”.

B3: JUN, P05412 1-331 (protein)
chain: MTAKMETTFYDDALNASFLPSESGPYGYSNPKILKQSMTLNLADPVGSLKPHLRAKNSDLLTSPDVGLLKLASPELERLIIQSSNGHITTTPTPTQFLCPKNVTDEQEGFAEGFVRALAELHSQNTLPSVTSAAQPVNGAGMVAPAVASVAGGSGSGGFSASLHSEPPVYANLSNFNPGALSSGGGAPSYGAAGLAFPAQPQQQQQPPHHLPQQMPVQHPRLQALKEEPQTVPEMPGETPPLSPIDMESQERIKAERKRMRNRIAASKCRKRKLERIARLEEKVKTLKAQNSELASTANMLREQVAQLKQKVMNHVNSGCQLMLTQQLQTF
Turning to B3, the binding result in assay [4] is “binds”.

(Values after article doi:10.1101/2021.05.12.443731.)
